# The list shows a part of the results. These are further read-outs of the screen, such as a control signal, another cell line or another target. No call is given for them. Most of these compounds were active or inconclusive in the main read-out, so they are no random draw. Potencies come from curve fits of mixed quality, noted in brackets.
# Test: qHTS Assay to Find Inhibitors of Chronic Active B-Cell Receptor Signaling
# Conditions: ABC-DLBCL IkBa-CBG/CBR reporter, luminescence ratio (green luciferase fused to IkBa over red control in TMD8 lymphoma cells), 4 h
# How it was run: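 Compounds up to 46 uM were incubated four hours with TMD8 cells whose green CBG68 luciferase is fused to IkappaBalpha; red CBR luminescence normalised the signal, and concentration-effect curves were fitted to fusion, red and ratio data.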
# [1] = measured here: CBR red luminescence, cell number
# [2] = measured here: IkBa-CBG green luminescence
Compound,AC50 [1],AC50 [2]
O=C(c1ccc(-c2ccccc2)cc1)N1CCN(c2ccccc2F)CC1,"35.5 µM [falling, single point]",–
O=C(O)c1c(F)c(F)c(F)c(F)c1-c1ccc(Cl)cc1,"14.1 µM [falling, partial curve, poor fit]",–
CN(CC(=O)Nc1ccc(F)cc1)C(=O)COC(=O)CNC(=O)c1sc2ccccc2c1Cl,"4.61 µM [falling, full curve]",–
CC(=O)c1csc(COc2cc(Cl)cc(Cl)c2)n1,"0.0891 µM [rising, full curve, poor fit]",–
Cc1cc(C(=O)NCc2ccco2)sc1C,"0.0731 µM [falling, full curve, poor fit]",–
CCOC(=O)N1CCC(c2cc(=O)n3[nH]c(-c4ccccc4)cc3n2)CC1,"5.8 µM [falling, full curve]",–
Cc1noc(C)c1COc1ccc(C(=O)N2CCN(S(=O)(=O)c3ccccc3)CC2)cc1,"1.16 µM [falling, partial curve, poor fit]",–
O=C(Nc1cccc(C(F)(F)F)c1)C(=O)N1CCCCC1,"2.82 µM [rising, partial curve]",–
COC(=O)c1cc(C#N)c(SCc2ccccc2)nc1C,"7.31 µM [rising, partial curve, poor fit]",–
CCC(O)(CC)C(=O)NN(C(=O)CCl)c1ccccc1,"29.1 µM [falling, single point]",–
CCCCc1cc(=O)oc2cc(C)cc(OCC(=O)Nc3cccnc3)c12,"31.6 µM [rising, single point]",–
O=C(OCC(=O)N1CCc2ccccc21)c1c2c(nc3ccccc13)CCCC2,"7.31 µM [falling, partial curve, poor fit]",–
O=C(O)c1cc(Cl)ccc1OS(=O)(=O)c1ccc(Cl)s1,"29.1 µM [falling, single point]",–
O=C(N/N=C/c1cccs1)C1COc2ccccc2O1 (configuration not stated),"6.51 µM [falling, single point]",–
NC(=O)C1(N2CCCCC2)CCN(C(=O)CSc2nc(C(F)(F)F)cc(=O)[nH]2)CC1,"0.092 µM [rising, full curve, poor fit]",–
O=c1c(Cl)c(N2CCCCC2)cnn1-c1nc2ccccc2[nH]1,"1.26 µM [falling, full curve]",–
O=[N+]([O-])c1cccc(/C=N/N2CCN(c3ccccn3)CC2)c1,"9.2 µM [rising, partial curve, poor fit]",–
Nc1nc(NCc2ccco2)nn1-c1ccccc1,"35.5 µM [falling, single point]",–
CCCSc1cc(N2CCN(C)CC2)nc(-c2ccc(OC)cc2)n1,"0.58 µM [falling, full curve, poor fit]",–
O=C(c1ccc(Cn2c(=O)[nH]c3ccsc3c2=O)cc1)N1CCN(c2ccccc2)CC1,"1.12 µM [rising, partial curve, poor fit]",–
CC1=NNC(=O)/C1=C\c1cn(-c2ccccc2)nc1-c1ccccc1,"35.5 µM [falling, single point]",–
Cc1nn(-c2ccccc2)c(N2CCCC2)c1/C=N/NC(=O)c1ccccc1O,"20.6 µM [falling, single point]",–

# An excerpt of these results, as tab-separated lines.
Compound	AC50 [1]	AC50 [2]
NC(=O)C1(N2CCCCC2)CCN(C(=O)CSc2nc(C(F)(F)F)cc(=O)[nH]2)CC1	0.092 µM [rising, full curve, poor fit]	–
O=c1c(Cl)c(N2CCCCC2)cnn1-c1nc2ccccc2[nH]1	1.26 µM [falling, full curve]	–

# Next compounds:

Compound,AC50 [1],AC50 [2]
COc1ccc(-c2noc(CN(C(=O)c3ccc4c(c3)OCO4)C(C)C)n2)cc1,"0.398 µM [falling, full curve, poor fit]",–
Cc1cccc(N2C(=O)N3[C@H]4c5ccccc5OC[C@@H]4[C@@H](c4ccccc4)[C@@]3(C)C2=O)c1,"1.46 µM [falling, full curve]",–
c1ccc2c(COn3nnc4ccccc43)cccc2c1,"0.411 µM [rising, full curve, poor fit]",–
CCCCNC(=S)NC(=O)c1ccccc1Br,"10.3 µM [rising, partial curve]",–
COc1ccc(C(=O)NCCc2nnc3ccc(SCC(=O)NCc4ccccc4)nn23)cc1,"5.01 µM [falling, full curve, poor fit]",–
O=c1cc(CN2CCN(S(=O)(=O)c3ccccc3)CC2)nc2ccc(Cl)cn12,"20.6 µM [rising, single point]",–
CCC(=O)Nc1sc2c(c1C(=O)Nc1ccccc1C)CCC(C)C2 (configuration not stated),"1.78 µM [rising, full curve, poor fit]",–
COCCn1c(SCC(=O)Nc2ccccc2F)nc2c([nH]c3ccccc32)c1=O,"6.31 µM [falling, single point]",–
CCc1ccc(OCCCC(=O)Nc2nnc(C3CCCO3)s2)cc1 (configuration not stated),"5.01 µM [rising, partial curve, poor fit]",–
O=C(NNC(=O)c1ccc(O)cc1O)c1ccc(Cl)cc1,"23.1 µM [falling, single point]",–
Cc1c(NC(=O)c2ccccc2N(C)S(=O)(=O)c2ccccc2)c(=O)n(-c2ccccc2)n1C,"4.61 µM [rising, single point]",–
CC(=O)c1ccc(NC(=O)/C(=C\c2cccs2)NC(=O)c2ccco2)cc1,"35.5 µM [rising, single point]","14.1 µM [falling, partial curve, poor fit]"
CN(C(=O)COC(=O)c1ccc2c(=O)n3c(nc2c1)CCC3)c1ccccc1,"8.2 µM [falling, partial curve, poor fit]",–
COc1ccc(S(=O)(=O)Nc2ccc3c(c2)n(C)c(=O)n3C)cc1C,"15.8 µM [rising, partial curve, poor fit]",–
N=c1nc(-c2ccccc2)ccn1O,"0.562 µM [falling, full curve, poor fit]",–
COc1ccccc1OCC(=O)NNC(=O)c1cccs1,"29.1 µM [falling, single point]",–
Cc1sc(NC(=O)C2CSC3(C)CCC(=O)N23)nc1-c1ccc(F)cc1 (configuration not stated),"15.8 µM [falling, partial curve]",–
Cc1ccc(NC2CCCCC2NS(=O)(=O)c2ccc(Cl)cc2)cc1 (configuration not stated),"8.2 µM [rising, partial curve]",–
O=C(CSc1ccc(Br)c2cccc(Cl)c12)Nc1ccc(S(=O)(=O)Nc2nccs2)cc1,"35.5 µM [falling, single point]",–
O=c1n(CCCN2CCN(c3cccc(Cl)c3)CC2)nc2ccccn12,"6.51 µM [rising, partial curve]",–
O=C(Cc1nc2ccccc2[nH]c1=O)c1ccc(Cl)cc1,"0.251 µM [falling, full curve, poor fit]",–
CCNC(=O)Nc1nc2ccccc2s1,"35.5 µM [falling, single point]",–

# Quoted from the listing.
# Entry for CCC(=O)Nc1sc2c(c1C(=O)Nc1ccccc1C)CCC(C)C2 (configuration not stated) under AC50 [1]: 1.78 µM [rising, full curve, poor fit]
# Entry for N=c1nc(-c2ccccc2)ccn1O under AC50 [1]: 0.562 µM [falling, full curve, poor fit]

# Going on with the list:

Compound,AC50 [1],AC50 [2]
COC(=O)c1ccc(S(=O)(=O)N2CCC(c3nc4ccccc4o3)CC2)cc1,"29.1 µM [rising, single point]",–
CSc1ccc(S(=O)(=O)NCC(=O)OCC(=O)N(Cc2ccccc2)C(C)C)cc1[N+](=O)[O-],"29.1 µM [falling, single point]",–
COc1ccccc1-n1cnc2cc(C(=O)NCCCN3CCOCC3)ccc21,"6.51 µM [rising, single point]",–
CCOc1ccc(-c2noc(-c3ccncc3)n2)cc1OCC,"0.0517 µM [rising, full curve, poor fit]",–
COc1ccccc1CNC(=O)C(=O)NCCC1CCCCN1S(=O)(=O)c1cccs1 (configuration not stated),"29.1 µM [falling, single point]",–
COc1ccc(/C(O)=C2/C(=O)C(=O)N(Cc3cccnc3)C2c2ccccn2)cc1 (configuration not stated),"18.4 µM [rising, partial curve]",–
Cc1ccc(S(=O)OCC(=O)Nc2cc(Cl)ccc2N2CCOCC2)cc1 (configuration not stated),"10 µM [falling, partial curve]",–
O=C(Cc1cccs1)NCCSc1c(-c2ccc(Cl)cc2)[nH]c2ccccc12,"29.1 µM [falling, single point]","20.6 µM [rising, single point]"
COC(=O)c1c(C(=O)OC)c(-c2ccc(C)cc2)n2c1CS(=O)C2 (configuration not stated),"2.59 µM [rising, partial curve, poor fit]",–
O=C(Nn1c(Cc2cccs2)nc2ccccc2c1=O)c1cccs1,"20 µM [falling, partial curve, poor fit]",–
O=C(NN=C1CCC(c2ccccc2)CC1)c1cc2c(s1)CCCC2 (configuration not stated),"6.51 µM [falling, single point]","6.51 µM [rising, partial curve, poor fit]"
O=c1nc(N2CCCCCC2)nc(N2CCCCCC2)[nH]1,"0.355 µM [rising, full curve, poor fit]",–
Clc1ccc(Cn2nnc(-c3ccccc3)n2)cc1,"20.6 µM [rising, single point]",–
CC(C)(C)Cc1nc(-c2ccccn2)no1,"5.17 µM [falling, partial curve]",–
COc1ccc(OC)c(S(=O)(=O)N2CCC(C(=O)NC3CCCC3)CC2)c1,"6.31 µM [rising, single point]",–
CCOC(=O)CSc1nc2sc(C(=O)O)c(C)c2c(=O)[nH]1,"16.4 µM [falling, partial curve]",–
COc1cccc(C(=O)NCCS(=O)(=O)NCc2ccco2)c1,"20.6 µM [falling, single point]",–
COc1ccccc1NC(=O)CCC(=O)Nc1ccccc1OC,"9.2 µM [falling, partial curve]",–
CC(C)(O)c1cc2ccc(C#Cc3ccsc3)cc2c(=O)o1,"29.1 µM [rising, single point]",–
COc1ccc(CNc2cc(NCCCO)c([N+](=O)[O-])c3nonc23)cc1,"7.94 µM [falling, partial curve, poor fit]",–

# From PubChem BioAssay AID493014 (National Center for Advancing Translational Sciences (NCATS), 2011)
